The record followed here is PMC10415178.

Amino acid sequences for entries named in this document (tags omitted).
UniProt Q04887: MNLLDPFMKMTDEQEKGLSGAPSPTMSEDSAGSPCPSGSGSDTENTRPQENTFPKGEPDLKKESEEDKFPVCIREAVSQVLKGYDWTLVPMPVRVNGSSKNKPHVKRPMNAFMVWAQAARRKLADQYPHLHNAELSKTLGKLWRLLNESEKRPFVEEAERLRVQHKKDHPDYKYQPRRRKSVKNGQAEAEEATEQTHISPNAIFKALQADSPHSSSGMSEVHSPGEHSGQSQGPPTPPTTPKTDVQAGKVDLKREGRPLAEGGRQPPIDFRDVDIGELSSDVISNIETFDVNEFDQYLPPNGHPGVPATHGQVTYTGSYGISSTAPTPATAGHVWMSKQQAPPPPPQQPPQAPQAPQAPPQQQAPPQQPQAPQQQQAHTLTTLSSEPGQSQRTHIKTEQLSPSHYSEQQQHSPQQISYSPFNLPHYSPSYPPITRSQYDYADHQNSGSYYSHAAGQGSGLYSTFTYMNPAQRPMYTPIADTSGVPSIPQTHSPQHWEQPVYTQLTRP
UniProt A2BH40: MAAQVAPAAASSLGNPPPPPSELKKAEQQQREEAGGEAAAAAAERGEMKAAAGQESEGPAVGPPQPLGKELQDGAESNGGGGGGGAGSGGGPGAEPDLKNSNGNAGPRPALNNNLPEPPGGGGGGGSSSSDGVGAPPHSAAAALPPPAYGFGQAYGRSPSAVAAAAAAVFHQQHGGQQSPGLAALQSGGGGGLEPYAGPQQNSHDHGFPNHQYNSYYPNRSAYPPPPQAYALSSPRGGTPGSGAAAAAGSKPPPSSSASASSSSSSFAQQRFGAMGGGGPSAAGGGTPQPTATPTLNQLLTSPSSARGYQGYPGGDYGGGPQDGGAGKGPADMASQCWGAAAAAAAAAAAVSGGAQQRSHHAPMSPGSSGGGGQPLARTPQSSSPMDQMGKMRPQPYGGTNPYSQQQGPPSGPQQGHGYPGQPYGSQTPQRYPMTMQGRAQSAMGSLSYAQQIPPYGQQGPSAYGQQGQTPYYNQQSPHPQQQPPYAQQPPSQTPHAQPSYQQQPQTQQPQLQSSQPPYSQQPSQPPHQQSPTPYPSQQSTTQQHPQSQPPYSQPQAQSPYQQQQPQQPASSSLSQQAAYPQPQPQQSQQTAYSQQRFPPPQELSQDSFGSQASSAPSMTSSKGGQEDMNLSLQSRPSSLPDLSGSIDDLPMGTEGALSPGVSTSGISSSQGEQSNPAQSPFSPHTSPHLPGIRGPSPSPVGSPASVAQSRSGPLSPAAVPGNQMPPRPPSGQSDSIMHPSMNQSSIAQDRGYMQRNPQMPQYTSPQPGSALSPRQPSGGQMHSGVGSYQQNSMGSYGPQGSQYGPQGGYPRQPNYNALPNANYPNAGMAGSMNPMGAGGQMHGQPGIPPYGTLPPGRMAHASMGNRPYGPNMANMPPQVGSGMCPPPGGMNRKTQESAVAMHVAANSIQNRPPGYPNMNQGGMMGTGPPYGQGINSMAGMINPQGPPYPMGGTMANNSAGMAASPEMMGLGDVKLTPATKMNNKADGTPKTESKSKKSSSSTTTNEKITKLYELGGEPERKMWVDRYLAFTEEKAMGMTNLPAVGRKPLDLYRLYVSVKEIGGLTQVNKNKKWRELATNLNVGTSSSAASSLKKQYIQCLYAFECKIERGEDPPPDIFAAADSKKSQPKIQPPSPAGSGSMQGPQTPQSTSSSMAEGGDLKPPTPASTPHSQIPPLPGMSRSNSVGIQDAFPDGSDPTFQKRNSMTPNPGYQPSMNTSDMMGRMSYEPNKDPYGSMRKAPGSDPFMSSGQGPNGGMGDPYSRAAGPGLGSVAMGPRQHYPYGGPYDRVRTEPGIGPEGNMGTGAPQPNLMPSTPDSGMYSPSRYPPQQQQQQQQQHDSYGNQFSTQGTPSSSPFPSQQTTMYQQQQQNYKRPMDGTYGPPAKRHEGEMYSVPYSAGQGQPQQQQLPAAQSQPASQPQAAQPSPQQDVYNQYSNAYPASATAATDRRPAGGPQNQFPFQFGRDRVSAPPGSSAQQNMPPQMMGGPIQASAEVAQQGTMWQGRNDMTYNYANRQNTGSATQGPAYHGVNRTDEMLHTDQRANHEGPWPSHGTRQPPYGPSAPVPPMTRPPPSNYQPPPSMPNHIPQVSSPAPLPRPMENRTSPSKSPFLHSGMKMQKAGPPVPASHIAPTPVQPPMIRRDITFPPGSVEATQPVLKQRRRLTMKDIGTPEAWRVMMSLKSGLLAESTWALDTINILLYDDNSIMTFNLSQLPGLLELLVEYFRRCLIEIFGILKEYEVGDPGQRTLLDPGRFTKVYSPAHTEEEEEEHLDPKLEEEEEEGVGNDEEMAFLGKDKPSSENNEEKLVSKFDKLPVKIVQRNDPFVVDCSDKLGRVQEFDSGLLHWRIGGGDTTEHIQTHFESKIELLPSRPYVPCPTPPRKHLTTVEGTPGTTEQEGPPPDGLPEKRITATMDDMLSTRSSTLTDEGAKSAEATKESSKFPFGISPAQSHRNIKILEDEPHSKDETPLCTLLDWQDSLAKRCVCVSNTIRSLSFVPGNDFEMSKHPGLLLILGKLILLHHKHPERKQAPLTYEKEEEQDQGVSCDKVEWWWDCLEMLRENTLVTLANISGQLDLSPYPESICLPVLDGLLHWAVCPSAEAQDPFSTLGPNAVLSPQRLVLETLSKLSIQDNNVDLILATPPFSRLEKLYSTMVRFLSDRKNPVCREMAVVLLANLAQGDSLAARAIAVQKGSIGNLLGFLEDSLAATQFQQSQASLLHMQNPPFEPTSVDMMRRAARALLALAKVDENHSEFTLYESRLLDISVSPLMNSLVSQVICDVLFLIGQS
UniProt E9Q4N7: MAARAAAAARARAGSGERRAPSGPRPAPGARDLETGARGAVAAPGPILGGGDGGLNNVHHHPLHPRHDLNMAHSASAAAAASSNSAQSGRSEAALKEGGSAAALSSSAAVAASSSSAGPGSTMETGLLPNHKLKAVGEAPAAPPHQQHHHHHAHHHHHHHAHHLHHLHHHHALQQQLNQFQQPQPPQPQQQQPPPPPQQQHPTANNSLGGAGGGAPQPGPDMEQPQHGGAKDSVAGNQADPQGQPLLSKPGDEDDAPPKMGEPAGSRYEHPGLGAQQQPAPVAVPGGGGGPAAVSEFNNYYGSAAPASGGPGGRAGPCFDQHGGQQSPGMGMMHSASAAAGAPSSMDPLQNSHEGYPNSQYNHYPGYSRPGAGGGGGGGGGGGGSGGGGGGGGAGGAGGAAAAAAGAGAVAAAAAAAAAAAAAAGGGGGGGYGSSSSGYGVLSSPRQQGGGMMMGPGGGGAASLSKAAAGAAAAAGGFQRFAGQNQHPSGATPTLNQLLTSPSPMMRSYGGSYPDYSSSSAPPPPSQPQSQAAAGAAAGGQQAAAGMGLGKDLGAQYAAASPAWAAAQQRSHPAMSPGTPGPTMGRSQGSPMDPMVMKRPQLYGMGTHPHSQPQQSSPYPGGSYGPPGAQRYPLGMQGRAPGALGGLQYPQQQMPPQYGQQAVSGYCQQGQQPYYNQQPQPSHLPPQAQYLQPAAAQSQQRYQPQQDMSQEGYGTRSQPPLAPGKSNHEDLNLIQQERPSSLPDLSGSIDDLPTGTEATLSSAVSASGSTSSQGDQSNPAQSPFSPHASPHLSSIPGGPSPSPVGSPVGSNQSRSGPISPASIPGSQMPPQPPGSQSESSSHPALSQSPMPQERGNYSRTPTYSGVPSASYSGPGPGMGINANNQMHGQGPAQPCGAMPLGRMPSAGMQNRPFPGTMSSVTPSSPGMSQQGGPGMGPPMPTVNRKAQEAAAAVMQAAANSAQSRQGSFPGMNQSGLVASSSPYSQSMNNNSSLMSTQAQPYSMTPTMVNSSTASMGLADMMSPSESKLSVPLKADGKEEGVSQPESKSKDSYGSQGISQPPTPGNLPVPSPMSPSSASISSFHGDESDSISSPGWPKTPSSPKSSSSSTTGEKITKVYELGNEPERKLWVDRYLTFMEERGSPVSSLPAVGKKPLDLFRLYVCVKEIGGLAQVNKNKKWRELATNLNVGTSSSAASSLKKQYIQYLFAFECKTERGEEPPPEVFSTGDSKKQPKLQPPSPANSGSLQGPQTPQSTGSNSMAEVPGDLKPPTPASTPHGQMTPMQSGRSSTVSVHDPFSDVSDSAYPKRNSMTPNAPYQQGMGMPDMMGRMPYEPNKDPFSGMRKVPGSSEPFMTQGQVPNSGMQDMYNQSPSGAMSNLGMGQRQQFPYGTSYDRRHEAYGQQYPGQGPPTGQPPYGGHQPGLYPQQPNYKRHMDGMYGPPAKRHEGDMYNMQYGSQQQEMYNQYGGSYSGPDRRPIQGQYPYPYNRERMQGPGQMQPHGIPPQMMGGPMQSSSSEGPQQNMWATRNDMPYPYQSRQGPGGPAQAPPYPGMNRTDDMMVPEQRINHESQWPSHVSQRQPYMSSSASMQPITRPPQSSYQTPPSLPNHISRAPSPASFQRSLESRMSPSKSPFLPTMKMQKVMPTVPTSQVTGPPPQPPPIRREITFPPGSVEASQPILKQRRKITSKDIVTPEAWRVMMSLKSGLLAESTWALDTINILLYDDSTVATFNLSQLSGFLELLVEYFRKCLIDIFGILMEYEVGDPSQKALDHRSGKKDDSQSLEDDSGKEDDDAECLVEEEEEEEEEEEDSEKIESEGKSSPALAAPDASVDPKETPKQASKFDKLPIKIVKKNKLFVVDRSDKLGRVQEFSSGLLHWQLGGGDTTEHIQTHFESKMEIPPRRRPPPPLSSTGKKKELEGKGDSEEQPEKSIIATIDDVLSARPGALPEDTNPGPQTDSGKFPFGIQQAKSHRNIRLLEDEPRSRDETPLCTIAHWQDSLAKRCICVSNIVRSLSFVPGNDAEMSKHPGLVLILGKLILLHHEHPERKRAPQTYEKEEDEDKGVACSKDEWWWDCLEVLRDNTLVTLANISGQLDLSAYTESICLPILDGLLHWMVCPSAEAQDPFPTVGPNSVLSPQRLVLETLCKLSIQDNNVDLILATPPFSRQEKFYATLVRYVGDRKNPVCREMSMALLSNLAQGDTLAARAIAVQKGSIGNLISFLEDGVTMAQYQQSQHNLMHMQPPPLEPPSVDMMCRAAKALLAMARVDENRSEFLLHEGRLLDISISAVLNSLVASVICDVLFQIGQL
UniProt Q99JR8: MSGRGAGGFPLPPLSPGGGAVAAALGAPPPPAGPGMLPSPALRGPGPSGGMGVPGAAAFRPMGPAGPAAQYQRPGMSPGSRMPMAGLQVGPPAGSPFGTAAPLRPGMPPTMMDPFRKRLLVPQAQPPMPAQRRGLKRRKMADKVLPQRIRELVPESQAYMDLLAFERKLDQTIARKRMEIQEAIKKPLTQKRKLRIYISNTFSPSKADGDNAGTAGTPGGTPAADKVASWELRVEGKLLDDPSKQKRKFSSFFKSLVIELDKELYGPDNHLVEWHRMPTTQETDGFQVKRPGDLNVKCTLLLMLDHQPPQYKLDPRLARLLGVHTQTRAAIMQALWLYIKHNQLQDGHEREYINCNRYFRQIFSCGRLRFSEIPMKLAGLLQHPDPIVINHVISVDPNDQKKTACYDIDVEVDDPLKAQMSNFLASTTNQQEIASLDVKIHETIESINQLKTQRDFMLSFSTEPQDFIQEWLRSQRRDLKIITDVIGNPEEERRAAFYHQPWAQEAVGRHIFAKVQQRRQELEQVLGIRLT
UniProt Q8VI33: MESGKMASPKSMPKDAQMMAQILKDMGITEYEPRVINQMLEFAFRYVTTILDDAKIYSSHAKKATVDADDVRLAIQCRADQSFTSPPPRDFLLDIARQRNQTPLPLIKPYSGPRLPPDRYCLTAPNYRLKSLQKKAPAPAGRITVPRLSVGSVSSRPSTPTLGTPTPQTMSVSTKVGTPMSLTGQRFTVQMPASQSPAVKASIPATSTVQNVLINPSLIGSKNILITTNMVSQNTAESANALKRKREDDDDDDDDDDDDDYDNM

The assay concerns the target MYC-BioID2-SOX9 (UniProt Q04887). The experiment in a line: proximity labelling; BioID2 fused to SOX9 induced with 1 μg/ml DOX in cultured primary Krt14-rtTA EpdSCs; 50 μM biotin for 16 h; biotinylated proteins purified on magnetic beads and analysed by mass spectrometry; hits: found in two of three MYC-BioID2-SOX9 replicates and absent from all MYC-BioID2-GFP-NLS samples.

Results are given in words; binding and its absence hold for the method and conditions named. Binding seen in cells or lysates may run through a third protein. Here binding means that the protein was enriched with, or labelled near, the bait; the list need not be complete.

In the case of ARID1a (from UniProt A2BH40 1-2283), the binding entry is recorded as “binds”.

Turning to ARID1b (from UniProt E9Q4N7 1-2306), the binding entry is “binds”.

On to MLL1 (from UniProt P55200 1-3966), for which the binding entry was “binds”.

Take SMARCD2 (from UniProt Q99JR8 1-531): the binding entry was “binds”.

For TAF9 (from UniProt Q8VI33 1-264), the binding entry is given as “binds”.

B1: JUNB (protein, UniProt P09450 1-344)
chain: MCTKMEQPFYHDDSYAAAGYGRSPGSLSLHDYKLLKPTLALNLADPYRGLKGPGARGPGPEGSGAGSYFSGQGSDTGASLKLASTELERLIVPNSNGVITTTPTPPGQYFYPRGGGSGGGTGGGVTEEQEGFADGFVKALDDLHKMNHVTPPNVSLGASGGPQAGPGGVYAGPEPPPVYTNLSSYSPASAPSGGSGTAVGTGSSYPTATISYLPHAPPFAGGHPAQLGLSRGASAFKEEPQTVPEARSRDATPPVSPINMEDQERIKVERKRLRNRLAATKCRKRKLERIARLEDKVKTLKAENAGLSSAAGLLREQVAQLKQKVMTHVSNGCQLLLGVKGHAF
Take B1: the binding entry was “binds”.

B2: FOSL2 (protein, UniProt P47930 1-326)
chain: MYQDYPGNFDTSSRGSSGSPAHAESYSSGGGGQQKFRVDMPGSGSAFIPTINAITTSQDLQWMVQPTVITSMSNPYPRSHPYSPLPGLASVPGHMALPRPGVIKTIGTTVGRRRRDEQLSPEEEEKRRIRRERNKLAAAKCRNRRRELTEKLQAETEELEEEKSGLQKEIAELQKEKEKLEFMLVAHGPVCKISPEERRSPPTSGLQSLRGTGSAVGPVVVKQEPPEEDSPSSSAGMDKTQRSVIKPISIAGGGFYGEEPLHTPIVVTSTPAITPGTSNLVFTYPNVLEQESPSSPSESCSKAHRRSSSSGDQSSDSLNSPTLLAL
For B2, the binding result is on record as “binds”.
